Source: ChEMBL document CHEMBL4513141, “CO-ADD screening of NIH (USA) - Clinical Collection” (2021)
The other results are listed elsewhere or left out. Measured potencies and affinities stand elsewhere.

System: Acinetobacter baumannii
Details: Concentration 20 uM; ASSAY_TEST Inhibition of Bacterial Growth; detection method Absorption (OD600); MEDIA CAMHB; plate type 384well; NBS; CORNING #3640; time 18 hr

| SMILES | Inhibition |
| --- | --- |
| NS(=O)(=O)c1cc2c(cc1C(F)(F)F)NC(Cc1ccccc1)NS2(=O)=O (stereo unspecified) [BENDROFLUMETHIAZIDE] | 25.43% |
| CC(O)CO.N[C@@H](C(=O)N[C@@H]1C(=O)N2C(C(=O)O)=C(CSc3c[nH]nn3)CS[C@H]12)c1ccc(O)cc1 | 3.06% |
| CC1(C)O[C@@H]2[C@@H](CO[C@@]3(COS(N)(=O)=O)OC(C)(C)O[C@@H]23)O1 [TOPIRAMATE] | 7.83% |
| CC[C@H](C)C(=O)O[C@H]1C[C@@H](C)C=C2C=C[C@H](C)[C@H](CC[C@@H]3C[C@@H](O)CC(=O)O3)[C@H]21 [LOVASTATIN] | 19.83% |
| CCOC(=O)C1=C(C)NC(C)=C(C(=O)OC)C1c1cccc([N+](=O)[O-])c1 (stereo unspecified) [NITRENDIPINE] | 8.52% |
| CCCC1O[C@@H]2C[C@H]3[C@@H]4CCC5=CC(=O)C=C[C@]5(C)[C@H]4[C@@H](O)C[C@]3(C)[C@]2(C(=O)CO)O1 (stereo partly specified) [BUDESONIDE] | 21.59% |
| CC1(C)O[C@@H]2C[C@H]3[C@@H]4C[C@H](F)C5=CC(=O)C=C[C@]5(C)[C@H]4[C@@H](O)C[C@]3(C)[C@]2(C(=O)CO)O1 [FLUNISOLIDE] | 20.9% |
| NC(=O)c1cccnc1 [NIACINAMIDE] | 28.24% |
| CCCc1nc(C(C)(C)O)c(C(=O)OCc2oc(=O)oc2C)n1Cc1ccc(-c2ccccc2-c2nnn[nH]2)cc1 [OLMESARTAN MEDOXOMIL] | 21.83% |
| CC(=O)[C@@]1(O)CC[C@H]2[C@@H]3C[C@H](C)C4=CC(=O)CC[C@]4(C)[C@H]3CC[C@@]21C | 25.1% |
| CCN1CCC[C@H]1CNC(=O)c1cc(S(N)(=O)=O)ccc1OC [LEVOSULPIRIDE] | 30.02% |
| C=C1/C(=C\C=C2/CCC[C@]3(C)[C@@H]([C@H](C)/C=C/[C@@H](O)C4CC4)CC[C@@H]23)C[C@@H](O)C[C@@H]1O [CALCIPOTRIENE] | 8.96% |
| CC(=O)O.NCc1ccc(S(N)(=O)=O)cc1 [MAFENIDE ACETATE] | 27.22% |
| C[C@]12CC[C@@H]3c4ccc(O)cc4CC[C@H]3[C@@H]1CC[C@@H]2O [ESTRADIOL] | 15.11% |
| COc1ccc2cc([C@H](C)C(=O)[O-])ccc2c1.[Na+] [NAPROXEN SODIUM] | 16.35% |
| CC(C)(C)C(O)/C=C/c1ccc2c(c1)OCO2 (stereo unspecified) [STIRIPENTOL] | 15.26% |
| CC(=O)/N=c1/sc(S(N)(=O)=O)nn1C [METHAZOLAMIDE] | 8.04% |
| CCCc1nc2c(C)cc(-c3nc4ccccc4n3C)cc2n1Cc1ccc(-c2ccccc2C(=O)O)cc1 | 22.54% |
| CCN(CC)CC1CCCCN1CC(=O)N1c2ccccc2C(=O)Nc2cccnc21 (stereo unspecified) [OTENZEPAD] | 12.92% |
| Cc1ccc(O)c([C@H](CCN(C(C)C)C(C)C)c2ccccc2)c1.O=C(O)C(O)C(O)C(=O)O [TOLTERODINE TARTRATE] | 12.65% |
| C[C@@H]1O[C@@H](OC[C@H]2O[C@@H](Oc3c(-c4ccc(O)c(O)c4)oc4cc(O)cc(O)c4c3=O)[C@H](O)[C@@H](O)[C@@H]2O)[C@H](O)[C@H](O)[C@H]1O [RUTIN] | 25.94% |

| SMILES | Inhibition |
| --- | --- |
| O=c1c(-c2ccccc2)c1-c1ccccc1 [DIPHENCYPRONE] | 5.75% |
| CC(C)(C)NC(=O)[C@@H]1CN(Cc2cccnc2)CCN1C[C@@H](O)C[C@@H](Cc1ccccc1)C(=O)N[C@H]1c2ccccc2C[C@H]1O.O=S(=O)(O)O [INDINAVIR SULFATE] | 3.63% |
| CC(C)(C)NCC(O)c1ccc(O)c(CO)c1.CC(C)(C)NCC(O)c1ccc(O)c(CO)c1.O=S(=O)(O)O (stereo unspecified) [ALBUTEROL SULFATE] | 22.62% |
| Nc1nnc(-c2cccc(Cl)c2Cl)c(N)n1 [LAMOTRIGINE] | 21.58% |
| CN1CCCC(n2nc(Cc3ccc(Cl)cc3)c3ccccc3c2=O)CC1.Cl (stereo unspecified) [AZELASTINE HYDROCHLORIDE] | 10.8% |
| CCCNC(C)C(=O)Nc1ccccc1C.Cl (stereo unspecified) [PRILOCAINE HYDROCHLORIDE] | 17.21% |
| CC(=O)NCCCCCCNC(C)=O [HEXAMETHYLENEBISACETAMIDE] | 11.13% |
| Cc1nccn1CC1CCc2c(c3ccccc3n2C)C1=O (stereo unspecified) [ONDANSETRON] | 10.7% |
| C[C@]12CCC(=O)C=C1CC[C@@H]1[C@@H]2[C@@H](O)C[C@@]2(C)[C@H]1CC[C@]2(O)C(=O)COC(=O)CCC(=O)O [HYDROCORTISONE HEMISUCCINATE ANHYDROUS] | 6.01% |
| CC(C)(C)NCC(O)COc1cccc2c1CC(O)C(O)C2 (stereo unspecified) [NADOLOL] | 24.15% |
| NC(=O)N1c2ccccc2CC(=O)c2ccccc21 [OXCARBAZEPINE] | 6.53% |
| Nc1ncnc2c1ncn2[C@@H]1O[C@H](CO)C[C@@H]1O.O | 15.93% |
| Cc1cccc(Nc2ccncc2S(=O)(=O)NC(=O)NC(C)C)c1 [TORSEMIDE] | 11.62% |
| CNCC[C@@H](Oc1ccccc1C)c1ccccc1.Cl [ATOMOXETINE HYDROCHLORIDE] | 8.13% |
| COCCOC(=O)C1=C(C)NC(C)=C(C(=O)OC(C)C)C1c1cccc([N+](=O)[O-])c1 (stereo unspecified) [NIMODIPINE] | 9.05% |
| NCC(=O)CCC(=O)O [AMINOLEVULINIC ACID] | 27.7% |
| Cc1ccc(C)c(OCCCC(C)(C)C(=O)O)c1 [GEMFIBROZIL] | 19.84% |
| CC(=O)O[C@H]1C[C@@H]2CC[C@@H]3[C@H](CC[C@@]4(C)[C@H]3C[C@H]([N+]3(C)CCCCC3)[C@@H]4OC(C)=O)[C@@]2(C)C[C@@H]1N1CCCCC1.[Br-] [VECURONIUM BROMIDE] | 11.14% |
| NS(=O)(=O)Cc1noc2ccccc12 [ZONISAMIDE] | 10.49% |
| Cc1ccccc1C(OCCN(C)C)c1ccccc1.Cl (stereo unspecified) [ORPHENADRINE HYDROCHLORIDE] | 22.26% |

Among those listed so far, two contain fluorine:

| SMILES | Inhibition |
| --- | --- |
| NS(=O)(=O)c1cc2c(cc1C(F)(F)F)NC(Cc1ccccc1)NS2(=O)=O (stereo unspecified) [BENDROFLUMETHIAZIDE] | 25.43% |
| CC1(C)O[C@@H]2C[C@H]3[C@@H]4C[C@H](F)C5=CC(=O)C=C[C@]5(C)[C@H]4[C@@H](O)C[C@]3(C)[C@]2(C(=O)CO)O1 [FLUNISOLIDE] | 20.9% |
